## Cleaved PARP in drug-treated melanoma cells

Values as published with doi:10.1371/journal.pone.0140310, rounded.

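Human melanoma cell lines in 1,536-well plates were treated with two drugs together for 72 h, then fixed, stained and imaged. Values are the share of nuclei positive for cleaved PARP as a percentage of the same share in the DMSO control: 100 is the control level, higher means more apoptosis. Concentrations were fixed for each drug; these are the higher of two levels. The file gives one value for each pair and line, without errors, so small differences may be noise. Basal and induced levels differ widely between cell lines.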 An unselected part of the screen is shown. A dash means that no value is listed here.

Drug key:
U73122, 2 µM: COc1ccc2c(c1)CCC1C2CCC2(C)C(NCCCCCCN3C(=O)C=CC3=O)CCC12 (stereo not given)
L-779450, 1 µM: Oc1cc(-c2nc(-c3ccccc3)[nH]c2-c2ccncc2)ccc1Cl
sunitinib, 2 µM: CCN(CC)CCNC(=O)c1c(C)[nH]c(/C=C2\C(=O)Nc3ccc(F)cc32)c1C
GW0742, 10 µM: Cc1cc(SCc2sc(-c3ccc(C(F)(F)F)c(F)c3)nc2C)ccc1OCC(=O)O
BI-D1870, 1 µM: CC(C)CCN1c2nc(Nc3cc(F)c(O)c(F)c3)ncc2N(C)C(=O)C1C (stereo not given)
ENMD-2076, 0.2 µM: Cc1cc(Nc2cc(N3CCN(C)CC3)nc(/C=C/c3ccccc3)n2)n[nH]1
midostaurin, 0.4 µM: CO[C@@H]1[C@H](N(C)C(=O)c2ccccc2)C[C@H]2O[C@]1(C)n1c3ccccc3c3c4c(c5c6ccccc6n2c5c31)C(=O)NC4

Pair	A375	IPC-298	WM451Lu
sunitinib + midostaurin	-	223	104
GW0742 + sunitinib	58.5	164	310
GW0742 + L-779450	272	130	65.3
ENMD-2076 + BI-D1870	116	173	232
U73122 + GW0742	72.6	212	42.5
GW0742 + ENMD-2076	180	210	189
U73122 + L-779450	780	198	107
U73122 + sunitinib	167	65.9	275
GW0742 + midostaurin	38.2	259	255
BI-D1870 + GW0742	31.1	47.2	31.4
midostaurin + BI-D1870	310	225	224
BI-D1870 + L-779450	344	73.0	601
midostaurin + L-779450	251	69.5	136
U73122 + midostaurin	415	101	959
sunitinib + BI-D1870	51.1	311	276
BI-D1870 + U73122	52.9	24.7	45.5
ENMD-2076 + midostaurin	-	90.1	86.3
L-779450 + sunitinib	685	167	2390